# PubChem BioAssay AID602196 – INSERM | 2012
# Assay: 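Genes whose knock-down alters cisplatin killing of lung cancer cells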
# Cells: human A549 lung cancer cells
# Knock-down reagent: siRNA pair against human genes
# Duration: 48 h transfection before cisplatin; time from cisplatin to read-out not stated
# Conditions: cisplatin at a dose killing half of control-siRNA cells; exact dose and duration not given
# Read-out: 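Shift in cisplatin death relative to control siRNA, from -50 (all cells die) to +50 (no cells die); siRNAs harmful on their own scored 0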
# Reading the numbers: two-siRNA summed score (-2 to +2): higher = both siRNAs protect from cisplatin killing; -2 means both sensitise; mean protection from cisplatin (shift in death) and protection from cisplatin (shift in death), siRNA C and protection from cisplatin (shift in death), siRNA D: higher = protection from cisplatin killing
# Active means: 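siRNAs harmful alone (LDH or WST-1) get 0; others get +1 for less and -1 for more cisplatin killing; genes are active when the two siRNAs give the same sign, summing to ±2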
# Calls: active = both siRNAs shift cisplatin killing the same way; inactive = no consistent shift, or siRNA harmful alone
# This is an unselected part of about 23,000 reagents. In the full data, 455 (2%) are marked active. 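Active includes both protection and sensitisation; some change values fall well beyond the stated -50 to +50 range.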 Reagents against one gene are numbered here. Not stated in the record: the amount of reagent.
gene,reagent no.,two-siRNA summed score (-2 to +2),mean protection from cisplatin (shift in death) (%),"protection from cisplatin (shift in death), siRNA C (%)","protection from cisplatin (shift in death), siRNA D (%)",activity call
PIR,1,0,3.8,6.1,1.4,inactive
PIR,2,0,8.4,7.1,9.8,inactive
CEP63,1,0,1.9,0.2,3.5,inactive
ANLN,1,0,-0.1,10.5,-10.7,inactive
IRF9,1,0,-3.6,8.8,-16,inactive
LOC442380,1,0,9.3,11.4,7.2,inactive
SNIP1,1,0,4.1,4,4.2,inactive
REXO6P,1,0,9.5,-0.3,19.3,inactive
LOC283157,1,1,14.2,18.6,9.7,inactive
LOC441097,1,0,9.9,7.4,12.4,inactive
LDHA,1,0,-2.5,5,-10,inactive
C7,1,1,13,16.7,9.3,inactive
SLC50A1,1,0,4.2,7.8,0.7,inactive
ANAPC5,1,0,-3.4,14.2,-21,inactive
PJA1,1,0,-1.2,2.5,-4.8,inactive
ANXA7,1,0,0.5,-3.9,4.8,inactive
LINC00656,1,-1,-5.2,-18.8,8.4,inactive
AMBP,1,-1,-12.8,-6.6,-18.9,inactive
BBC3,1,0,3,1,5.1,inactive
NUDT5,1,0,-2.8,0.8,-6.4,inactive
FGF7P6,1,0,3.3,0.7,5.9,inactive
ABCC13,1,0,4,3.1,4.9,inactive
LOC440123,1,1,14,16.2,11.8,inactive
IMPDH2,1,-1,-24.5,-20.1,-28.8,inactive
ITPA,1,1,10.6,16.2,5,inactive
CAPN12,1,0,-2.1,-7.7,3.4,inactive
MTERF3,1,0,-1.8,0.7,-4.3,inactive
AFG2B,1,0,7.4,6.4,8.3,inactive
HCG22,1,1,1.4,16.6,-13.7,inactive
MAGEB2,1,0,1.9,-7,10.9,inactive
SSR2,1,0,10.9,-1.5,23.3,inactive
MRPL36,1,0,-5.3,-5.2,-5.5,inactive
FLJ46675,1,0,17.4,31.3,3.5,inactive
LOC401528,1,0,9.3,9.3,9.3,inactive
PKHD1L1,1,0,1.1,4.1,-2,inactive
TNN,1,0,8.1,7.9,8.2,inactive
LOC439954,1,0,2.4,6.1,-1.4,inactive
LOC401492,1,0,12.3,17.3,7.3,inactive
LOC391405 (retired record),1,1,19.3,26.8,11.8,inactive
SSTR2,1,-1,-16.5,-11.3,-21.7,inactive
REP15,1,0,3,2.3,3.8,inactive
MAFB,1,-1,-19.8,-26.1,-13.4,inactive
LOC442647,1,1,22.6,22.7,22.5,inactive
PTGER1,1,0,-11.5,-1.6,-21.5,inactive
LOC391258,1,0,4.8,1.1,8.5,inactive
LINC02649,1,0,6.3,9.2,3.4,inactive
LOC388476,1,0,0.5,2.7,-1.8,inactive
LOC153134,1,0,4.3,9.4,-0.8,inactive
CCDC117,1,0,3.9,0.8,7.1,inactive
C15orf40,1,0,8.7,6.2,11.3,inactive
ECI1,1,0,0.1,-13.5,13.7,inactive
FHIP1B,1,1,21,13.3,28.8,inactive
OPRL1,1,-1,-5.3,-21.5,10.8,inactive
ZBTB17,1,0,-11,-11.5,-10.4,inactive
SGCB,1,0,-1.4,-1.9,-0.9,inactive
BANF1,1,-1,-12,6.1,-30.1,inactive
CLASP2,1,0,-2.3,-3.6,-1.1,inactive

Only “mean protection from cisplatin (shift in death) (%)”, for 8 of the entries above:
LINC02649 = 6.3
LOC388476 = 0.5
LOC153134 = 4.3
CCDC117 = 3.9
C15orf40 = 8.7
ECI1 = 0.1
FHIP1B = 21
OPRL1 = -5.3
